This series has as its system IGF-1. As to the kind of experiment: IGF-1 levels in poor-growing piglets treated with IAA (Example 7). Type of series: in vivo, piglets (Dutch Landrace). The settings on record: treated group B, total of 5 piglets. From the text:
The trial was done in a well-managed farm with 1000 sows of the Dutch Landrace. Although the farm is well run, the technical performance is not optimal. There were latent problems with mortality and with growth rates of the piglets. There are too many poor-growing piglets, without fully understanding the technical or veterinary reason. There is no clear pathology to be seen on the farm.
The farmer selected the poor-growing piglets for this weaning period. The piglets were weaned for two days at the start of the trial. There were three groups: the normal well-growing piglets, which served as a control group; the B group with 78 poor growers that are treated with 12.5 mg/kg/LW (Life Weight) IAA; and the X group with 52 poor growers that are not treated.
Blood samples for IGF-1 measuring were taken from each group at the beginning of the trial and at the end of the trial. Two pens (13 piglets) of the B and X groups were weighed at the beginning and at the end of the trial. The active ingredient IAA was mixed in dextrose. […] The B group received the treatment five days after the first IGF-1 measuring.

Regarding indole acetic acid [IAA], the “IGF-1 level, 2nd measurement, total” value (after 21 days of treatment) is 126.4 nmol/L. In addition, the “IGF-1 level, 1st measurement, total” value (before treatment) is recorded as 22.8 nmol/L.

The record behind these values is US10716778B2, “Use of compounds that are able to increase the serum IGF-1 level for the preparation of a therapeutical composition for treatment of various disease states associated with a reduced IGF-1 serum level in humans and animals” (VEIJLEN N.V., priority 2003, dated 2020).
